Results taken from PubChem BioAssay AID504467 (National Center for Advancing Translational Sciences (NCATS), 2011).
Hit rate of the full screen: of about 330,000 compounds, about 7,700 (2.3%) were called active. This list was built around the results that the source calls inconclusive (neither active nor inactive); the mix of calls is not that of the screen. The call rests on the fitted dose curve; in most records, active means well fitted inhibition curve with a large enough effect; inconclusive means small, poorly fitted or top-dose-only effect, or effect the other way; inactive means flat fitted curve, though single readings scatter. A potency beside an inconclusive call is a rough fit, not a confirmed value.

Experiment: qHTS screen for small molecules that inhibit ELG1-dependent DNA repair in human embryonic kidney (HEK293T) cells expressing luciferase-tagged ELG1; further: nearly all actives have a fitted effect of over 55% in size
Settings: HEK293T ELG1-luciferase reporter, luminescence, 16 h, DNA damage induced by 5-fluorouridine; activity change, negative = inhibition: at 46.1 µM (top of the series)
How it was run: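 HEK293T cells expressing luciferase-tagged ELG1 (2,000/well) received 5-Fluorouridine plus compound or DMSO for 16 hr at 37 °C. Luciferase was read by ONE-Glo luminescence after 30 min at room temperature.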
On the % scale 0 is the no-effect control and ±100 the full control effect; potency means the concentration at half of the fitted maximal effect.

SMILES	activity change, negative = inhibition	Potency
CC(C)(C)[C@H]1COC(=O)[C@H](NC(=O)OCC2c3ccccc3-c3ccccc32)C/C=C\C[C@@H](CC(=O)N[C@H](CO)Cc2ccccc2)C(=O)N1	inactive: 12.1%	–
Cc1nc2ccc(NC(=O)N3CCCCC3)cc2s1	–	inconclusive: 16.4 µM [activator, partial curve, poor fit]
CN1CCN(/C=N/C2=C(C#N)C(c3ccccc3)C3=C(CC(C)(C)CC3=O)O2)CC1 (configuration not stated)	–	inconclusive: 0.0073 µM [activator, full curve, poor fit]
O=C(NCC1CCCN1S(=O)(=O)c1cccs1)c1ccc(Cl)cc1 (configuration not stated)	inactive: -6.95%	–
COc1ccc(-c2ccc(SCC(=O)Nc3nnc(C)s3)nn2)cc1	–	inconclusive: 2.91 µM [activator, full curve]
CN(C)CCSc1nnc(-c2ccccc2)o1	–	inconclusive: 18.4 µM [activator, partial curve]
Fc1ccc(-c2csc3ncnc(N4CCc5ccccc5C4)c23)cc1	–	inconclusive: 20.6 µM [inhibitor, partial curve]
Cc1cc(C)c(-c2csc(Cc3nc(-c4cc5ccccc5oc4=O)cs3)n2)cc1C	–	inconclusive: 4.61 µM [inhibitor, partial curve, poor fit]
COc1ccc(CCNC(=O)C(=O)NCC2CCCN2S(=O)(=O)c2cccs2)cc1 (configuration not stated)	–	inconclusive: 16.4 µM [inhibitor, partial curve, poor fit]
O=C(Nc1cccnc1Cl)c1cccs1	–	inconclusive: 23.1 µM [activator, single point]
Cc1c(C(=O)OCC2CCCO2)[nH]c2c1C(=O)CC(c1ccc(N(C)C)cc1)C2 (configuration not stated)	–	inconclusive: 16.4 µM [inhibitor, single point]
CCOCCCNC(=O)c1cn(C)c2ccc(S(=O)(=O)N(C)C3CCCCC3)cc2c1=O	–	inconclusive: 18.4 µM [inhibitor, single point]
Cc1cccc(OCC(=O)NCC(=O)N/N=C/c2c(C)[nH]c3ccccc23)c1	–	inconclusive: 29.1 µM [inhibitor, single point]
CCOc1cccc(C(=O)Nc2nnc(-c3cccs3)s2)c1	–	inconclusive: 2.06 µM [activator, full curve]
C/C(=N/Nc1cc(-c2ccccc2)nc(-c2ccccc2)n1)c1ccc(O)cc1	inactive: 0.616%	–
Cc1ccc(SCCC(=O)NCC2CCCO2)cc1 (configuration not stated)	–	inconclusive: 29.1 µM [activator, single point]
O=C1C=CC(=O)N1	inactive: -2.78%	–
CC(=O)N1c2ccc(S(=O)(=O)N3CCCC(C(=O)N4CCCC(C)C4)C3)cc2CC1C (configuration not stated)	–	inconclusive: 14.6 µM [inhibitor, partial curve]
CCCNC(=O)COCc1cc(-c2ccc3c(c2)OCO3)on1	–	inconclusive: 18.3 µM [activator, partial curve]
CCOc1cc(/C=N/Nc2nc(C)cc(=O)[nH]2)ccc1O	–	inconclusive: 29.1 µM [inhibitor, partial curve, poor fit]
CCOc1ccc(N(CC(=O)N2CCOCC2)S(=O)(=O)c2ccc(SC)cc2)cc1	inactive: 8.62%	–

An excerpt of these results, with each value named:
CN1CCN(/C=N/C2=C(C#N)C(c3ccccc3)C3=C(CC(C)(C)CC3=O)O2)CC1 (configuration not stated)
  Potency: inconclusive: 0.0073 µM [activator, full curve, poor fit]
O=C(NCC1CCCN1S(=O)(=O)c1cccs1)c1ccc(Cl)cc1 (configuration not stated)
  activity change, negative = inhibition: inactive: -6.95%
COc1ccc(-c2ccc(SCC(=O)Nc3nnc(C)s3)nn2)cc1
  Potency: inconclusive: 2.91 µM [activator, full curve]

(more compounds)

SMILES	activity change, negative = inhibition	Potency
COc1ccc(OC)c(S(=O)(=O)N2CCC(C(=O)N3CCN(Cc4ccccc4)CC3)CC2)c1	–	inconclusive: 23.1 µM [inhibitor, partial curve]
COc1cc(C)ccc1OCCOCCOc1cc(C)c(C)cc1Br	–	inconclusive: 32.6 µM [inhibitor, partial curve, poor fit]
O=S(=O)(Nc1ccc(S(=O)(=O)Nc2ncccn2)cc1)c1ccccc1	inactive: 11.9%	–
Cc1cc(C(=O)N/N=C/c2c[nH]c3ccccc23)c(C)o1	–	inconclusive: 20.6 µM [activator, partial curve]
OCC[C@@H]1C[C@@H](O)[C@H](O)[C@]2(CCCc3ccccc3O2)O1	–	inconclusive: 29.1 µM [activator, single point]
CCCOC(=O)c1c(NC(=O)C2CCCO2)sc(C(=O)OC)c1C (configuration not stated)	–	inconclusive: 16.4 µM [inhibitor, single point]
CCOC(=O)N1CCC(NC(=O)c2cc(-c3ccc(OC)cc3)nc3ccccc23)CC1	inactive: -2.78%	–
COCCCNC(=O)c1cc(S(=O)(=O)N2CCOCC2)ccc1SCc1cccc(OC)c1OC	inactive: -0.746%	–
Cc1nn(-c2ccccc2Cl)c2sc(C(=O)Nc3nnc(C4CC4)s3)cc12	–	inconclusive: 29.1 µM [activator, single point]
COc1ccc(CC(=O)N2CCN(c3ccc(C4=NNC(=O)CC4C)cc3)CC2)cc1 (configuration not stated)	inactive: -3.19%	–
COC(=O)c1cccc(Nc2nc3ccccc3nc2C)c1	–	inconclusive: 23.1 µM [inhibitor, partial curve]
Nc1cccc2c(=O)c3ccccc3[nH]c12	–	inconclusive: 23.1 µM [inhibitor, single point]
CC1CCOC(c2coc3ccccc3c2=O)O1 (configuration not stated)	–	inconclusive: 18.4 µM [activator, partial curve]
CC(=O)Nc1ccc(Nc2nc(-c3cc4ccccc4oc3=O)cs2)cc1	–	inconclusive: 2.06 µM [inhibitor, full curve, poor fit]
S=c1[nH]c(-c2ccccc2)cs1	–	inconclusive: 23.1 µM [activator, single point]
CCc1ccc(C2NC(=S)NC3=C2C(=O)N(c2ccccc2OC)C(c2ccc(CC)cc2)N3)cc1 (configuration not stated)	–	inconclusive: 20.6 µM [inhibitor, partial curve]
C=CCn1c(SCC(=O)NC2CCS(=O)(=O)C2)nnc1-c1cc2c(s1)CCC(CC)C2 (configuration not stated)	–	inconclusive: 20.6 µM [activator, partial curve, poor fit]
COc1ccc2c(=O)c(N3C(=O)c4ccccc4C3=O)coc2c1	–	inconclusive: 13 µM [activator, partial curve]
Cc1csc(CNc2ncnc3ccc(-c4ccc5c(c4)OCCO5)cc23)c1	–	inconclusive: 29.1 µM [inhibitor, single point]
Cc1ccccc1CN1CCCC(C(=O)Nc2ccccc2Oc2cccnc2)C1 (configuration not stated)	inactive: 7.63%	–
O=c1[nH]c(COc2ccc(Cl)cc2Cl)nc2ccccc12	–	inconclusive: 5.17 µM [activator, partial curve]
